# Results deposited as PubChem BioAssay AID1053208 (Peter MacCallum Cancer Centre, 2014)
# Test: 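Find knock-downs that sensitise mouse osteosarcoma cells to doxorubicin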 (primary screen)
# Cell system: mouse osteosarcoma cells, early-passage culture from an engineered mouse model of fibroblastic bone tumour
# Reagent: siRNA pool against mouse genes, 40 nM
# Duration: about 120 h (48 h before drug, then 72 h with drug)
# Challenge: doxorubicin 100 nM for 72 h, roughly 30-40% inhibitory dose
# Measured: 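Luminescent ATP signal taken as viability with or without 100 nM doxorubicin for 72 h; mean of two wells set against non-targeting siRNA and turned into robust z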
# Direction: viability z-score with doxorubicin: higher = more viable cells under doxorubicin; viability z-score without drug: higher = more viable cells with knock-down alone
# Active means: 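a pool counts as active when its viability z-score with doxorubicin is -2 or below and its z-score without drug lies between -2 and 2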
# Here is an unselected part of about 17,000 reagents. Of all reagents, 788 (4.7%) were called active. 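Calls rest on z-score classes alone; an extra cut-off of viability at most 70% of control was not applied to them.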 Further read-outs or replicates are left out here. Reagent sequences are not shown.
The first 2 entries, to show the layout:
gene,combined z-score class,viability z-score with doxorubicin,viability z-score without drug,Outcome
Tnfsf9,no change with or without drug,-0.45,0.17,inactive
Prelid3b,no change with or without drug,-1.01,1.69,inactive

Results, from the first entry:
gene,combined z-score class,viability z-score with doxorubicin,viability z-score without drug,Outcome
Tnfsf9,no change with or without drug,-0.45,0.17,inactive
Prelid3b,no change with or without drug,-1.01,1.69,inactive
Cma1,no change with or without drug,-1.46,0.84,inactive
1700010H22Rik,low cell count with and without drug,-2.02,-2.02,inactive
Dgat1,no change with or without drug,1.24,-0.84,inactive
Tm9sf1,no change with or without drug,-0.67,-0.84,inactive
Csnk1d,no change with or without drug,-0.56,1.18,inactive
Fam151a,high cell count without drug only,1.57,2.7,inactive
Tbc1d10b,low cell count with and without drug,-3.93,-2.53,inactive
Tlk1,low cell count with doxorubicin only,-2.02,-0.17,active
Dad1,no change with or without drug,-0.67,-1.85,inactive
Nlrp4a,high cell count without drug only,0.9,2.87,inactive
Apoa2,no change with or without drug,-0.11,0,inactive
Armc8,high cell count without drug only,-0.79,2.53,inactive
Pdpk1,no change with or without drug,1.12,-0.51,inactive
Pla2g2d,no change with or without drug,1.35,0.17,inactive
Poli,no change with or without drug,0.22,0,inactive
Zbtb21,low cell count with doxorubicin only,-2.25,-0.51,active
Mta1,no change with or without drug,-0.22,-0.51,inactive
Ptma,no change with or without drug,1.8,1.85,inactive
